The target in the assay is 4R0N-tau (human) (UniProt P10636). The experiment in a line: co-IP; lysates of tsA-201 cells co-transfected with CaVβ3 and either 4R0N- or 4R1N-tau; co-IP buffer 150 mM NaCl, 20 mM HEPES, 0.5% triton X-100, pH 7.4; mouse anti-tau (Sigma T9450) or control mouse IgG 1.5 h at 4 °C, Protein G sepharose; Western blot with anti-tau and anti-CaVβ3; band intensities normalised to input.

Protein sequences, listed by entry. Tags and fused reporters are not part of them. Lines headed by an entry give the natural chain unless they say otherwise; changes in a name come on top. Chains listed by the source or under a name are the forms on record and can include a tag or linker.
4R0N-tau (P10636, form named): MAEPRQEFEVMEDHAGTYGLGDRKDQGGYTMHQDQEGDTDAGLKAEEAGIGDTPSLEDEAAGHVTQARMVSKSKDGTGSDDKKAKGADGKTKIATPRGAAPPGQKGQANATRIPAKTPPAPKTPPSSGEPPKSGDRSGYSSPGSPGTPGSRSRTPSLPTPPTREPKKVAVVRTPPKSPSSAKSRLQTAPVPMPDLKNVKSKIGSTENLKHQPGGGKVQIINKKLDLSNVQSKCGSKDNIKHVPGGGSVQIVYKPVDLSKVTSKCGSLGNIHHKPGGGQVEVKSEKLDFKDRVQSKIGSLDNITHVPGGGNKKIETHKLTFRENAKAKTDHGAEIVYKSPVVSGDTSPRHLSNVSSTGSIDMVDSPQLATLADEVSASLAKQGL

No constants are given. Whether binding was seen depends on the method and setting. Binding seen in cells or lysates may run through a third protein. Some binding calls cover weakened binding; strength is not graded here.

On to “CaVβ3 subunit (from UniProt P54287 1-484)”, for which the binding result is recorded as “binds”.

The values above are taken from PMC9458744.
